Reference: patent publication US20100223690A1, “COMPOSITIONS AND METHODS FOR MODULATING PLANT DISEASE RESISTANCE AND IMMUNITY” (Washington State University, published 2010)
The exact form of at least one protein or probe is not confirmed. Tags and fusion partners may be left off the protein sequences shown.

What follows are sequences tested against T1, AtSR1 (Arabidopsis thaliana) (UniProt Q8GSA7) (assay: binding assay). Details: not given.
T1 sequence (limits assumed): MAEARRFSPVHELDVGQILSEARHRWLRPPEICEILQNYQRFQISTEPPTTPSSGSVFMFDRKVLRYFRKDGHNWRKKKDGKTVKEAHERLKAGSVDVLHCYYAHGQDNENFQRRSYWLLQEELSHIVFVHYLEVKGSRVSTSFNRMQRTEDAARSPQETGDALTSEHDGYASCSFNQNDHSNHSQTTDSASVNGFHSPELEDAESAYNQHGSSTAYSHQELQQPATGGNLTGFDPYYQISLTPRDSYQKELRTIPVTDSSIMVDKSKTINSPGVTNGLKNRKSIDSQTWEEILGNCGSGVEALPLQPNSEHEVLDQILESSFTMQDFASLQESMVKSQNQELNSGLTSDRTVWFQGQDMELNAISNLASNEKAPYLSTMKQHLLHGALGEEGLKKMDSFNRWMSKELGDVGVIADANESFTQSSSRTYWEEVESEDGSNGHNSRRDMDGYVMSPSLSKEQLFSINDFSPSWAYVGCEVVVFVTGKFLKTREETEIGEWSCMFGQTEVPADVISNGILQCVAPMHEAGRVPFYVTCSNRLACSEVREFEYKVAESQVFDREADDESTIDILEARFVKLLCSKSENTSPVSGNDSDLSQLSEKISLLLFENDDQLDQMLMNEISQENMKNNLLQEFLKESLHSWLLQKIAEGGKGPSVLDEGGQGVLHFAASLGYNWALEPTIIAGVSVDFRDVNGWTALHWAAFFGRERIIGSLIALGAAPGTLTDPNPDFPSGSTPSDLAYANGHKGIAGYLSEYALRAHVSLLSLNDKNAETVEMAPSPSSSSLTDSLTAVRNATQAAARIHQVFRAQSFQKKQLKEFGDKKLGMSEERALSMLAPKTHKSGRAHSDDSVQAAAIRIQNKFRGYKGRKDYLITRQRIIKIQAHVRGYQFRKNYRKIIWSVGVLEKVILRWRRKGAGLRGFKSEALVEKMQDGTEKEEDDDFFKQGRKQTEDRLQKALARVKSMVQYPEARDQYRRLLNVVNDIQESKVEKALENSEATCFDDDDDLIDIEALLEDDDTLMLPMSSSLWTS

Binding result, binds:
ACGCGC (double strand) [CGCG box ACGCGC]
ACGCGT (double strand) [CGCG box ACGCGT]
CCGCGC (double strand) [CGCG box CCGCGC]
CCGCGG (double strand) [CGCG box CCGCGG]
CCGCGT (double strand) [CGCG box CCGCGT]
GCGCGG (double strand) [CGCG box GCGCGG]
GCGCGT (double strand) [CGCG box GCGCGT]

Same assay, conditions: any CGCG mutation abolishes binding

Binding result, binds:
ACGCGG (double strand) [CGCG box ACGCGG]
